Data on 21 compounds can be found in the supplement of paper PMC8166895.

Where a name gives a salt, the structure may show the parent alone. The list shows a part of the results. Most entries show no effect beyond the scatter of the controls.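 Melting temperature was read by differential scanning fluorimetry in a single-replicate pilot screen of a library of approved drugs and clinical or known-target compounds. Compounds raising the melting point by at least 2 °C were the top stabilizing hits, and negative shifts mean destabilization.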

For this assay, the system named is SARS-CoV-2 main protease (Mpro, nsp5). Description: thermal shift ΔTm of Mpro relative to plate average Tm; higher = stronger thermal stabilization of Mpro (binding). The following applies: 10 µM; protein concentration 1 µM.
Regarding `Cc1cc(C(C)(C)C)cc(C)c1CC1=NCCN1` [Xylometazoline HCl], the “thermal shift ΔTm of Mpro” value was 0.189 °C.

`COC(=O)[C@H](CC(C)C)NC(=O)c1ccc(NC[C@@H](N)CS)cc1-c1cccc2ccccc12`: the “thermal shift ΔTm of Mpro” value was 0.223 °C.

For the compound `COc1ccc2c3n(c(=NC(=O)c4cccnc4)nc2c1OC)CCN3`, the “thermal shift ΔTm of Mpro” value was 0.195 °C.

As to `CC#CCn1c(N2CCC[C@@H](N)C2)nc2c1c(=O)n(Cc1nc(C)c3ccccc3n1)c(=O)n2C` [Linagliptin], the “thermal shift ΔTm of Mpro” value is -0.0664 °C.

As to `CCN(CC)CCOCCOC(=O)C1(c2ccccc2)CCCC1` [Pentoxyverine Citrate], the “thermal shift ΔTm of Mpro” value is -0.118 °C.

`CC(=O)Nc1nc(-c2cccc(NS(=O)(=O)c3cccc4c(N(C)C)cccc34)c2)cs1`: the “thermal shift ΔTm of Mpro” value was -0.111 °C.

Turning to `Cc1cc(NC(=O)NCCN2CCC(O)(Cc3ccccc3)CC2)c2ccccc2n1` [Palosuran], the “thermal shift ΔTm of Mpro” value amounted to 0.031 °C.

On to `CN1[C@@H]2C[C@@H](OC(=O)[C@H](CO)c3ccccc3)C[C@H]1[C@@H]1O[C@@H]12` [Scopolamine HBr], for which the “thermal shift ΔTm of Mpro” value was 0.257 °C.

For the compound `CCCc1ccc(OCC(=O)N(Cc2nc(-c3cccnc3)no2)C(C)C)cc1`, the “thermal shift ΔTm of Mpro” value was -0.235 °C.

On to `COc1cc(OC)c(NC(=O)Nc2cc(C)on2)cc1Cl`, for which the “thermal shift ΔTm of Mpro” value came out at 0.0846 °C.

Regarding `CNC(=O)c1ccc(N2C(=S)N(c3ccc(C#N)c(C(F)(F)F)c3)C(=O)C2(C)C)cc1F` [Enzalutamide (MDV3100)], the “thermal shift ΔTm of Mpro” value came to 0.259 °C.

`NC[C@@](O)(c1ccc(Cl)cc1)c1ccc(-c2cn[nH]c2)cc1`: the “thermal shift ΔTm of Mpro” value is -0.191 °C.

With `O=c1c(O)c(-c2ccc(O)cc2)oc2cc(O)cc(O)c12` [Kaempferol], the “thermal shift ΔTm of Mpro” value is -0.0335 °C.

In the case of `CC(C)NC(=O)C1CCC(n2c(NC(=O)c3ccc(F)cc3)nc3ccc(CN4CCC(C(C)(C)O)CC4)cc32)CC1` (stereo unspecified) [Belizatinib], the “thermal shift ΔTm of Mpro” value was -0.232 °C.

`N#C/C(=C(/N)Sc1ccc(N)cc1)c1ccccc1C(F)(F)F`: the “thermal shift ΔTm of Mpro” value worked out at 0.0677 °C.

In the case of `COc1cc2nc(N3CCN(C(=O)C4COc5ccccc5O4)CC3)nc(N)c2cc1OC` (stereo unspecified) [Doxazosin Mesylate], the “thermal shift ΔTm of Mpro” value is 0.23 °C.

`CC(C)(C)NC(=O)[C@H]1CC[C@H]2[C@@H]3CC[C@H]4NC(=O)C=C[C@]4(C)[C@H]3CC[C@]12C` [Finasteride]: the “thermal shift ΔTm of Mpro” value was found to be 0.181 °C.

Turning to `Cc1ccc(C(=O)Cn2c3c(sc2=N)CCCC3)cc1` [Pifithrin-α (PFTα)], the “thermal shift ΔTm of Mpro” value was 0.019 °C.

Regarding `C=CC[N+]1([C@H]2C[C@H]3[C@@H]4CC[C@H]5C[C@H](O)[C@@H](N6CCOCC6)C[C@]5(C)[C@H]4CC[C@]3(C)[C@H]2OC(C)=O)CCCC1` [Rocuronium Bromide], the “thermal shift ΔTm of Mpro” value stood at 0.0872 °C.

Turning to `Cc1cccc(C)c1NC(=O)CN1CCCC1=O` [Nefiracetam], the “thermal shift ΔTm of Mpro” value was 0.232 °C.

As for `Cc1ccc(C(=O)N(CCCN)[C@@H](c2oc3cc(Cl)ccc3c(=O)c2Cc2ccccc2)C(C)C)cc1`, the “thermal shift ΔTm of Mpro” value was -0.302 °C.
